Laboratory results taken from PubChem BioAssay AID504444 (National Center for Advancing Translational Sciences (NCATS), 2011).
Out of some 360,000 compounds screened, about 7,500 (2.1%) were called active. Inconclusive results, whose numbers are uncertain, are shown with a selection of clear calls. The call rests on the fitted dose curve; in most records, active means well fitted inhibition curve with a large enough effect; inconclusive means small, poorly fitted or top-dose-only effect, or effect the other way; inactive means flat fitted curve, though single readings scatter. Where the call is inconclusive, the potency comes from a doubtful curve fit.

Test: Nrf2 qHTS screen for inhibitors; further: nearly all actives have a fitted effect of over 60% in size
Settings: A549 ARE-Fluc reporter, luciferase luminescence, 18-24 h; series mostly up to 46 µM
Method in brief: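 Quantitative HTS in A549 cells stably bearing an antioxidant response element-firefly luciferase construct. Inhibition of Nrf2-driven transcription was scored by luminescence after 18-24 h of compound exposure at 37 °C.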
Potency means the concentration at half of the fitted maximal effect.

For O=c1[nH]c(/C=C/c2cccc(Br)c2)nc2ccccc12, which Potency is on record?
Its Potency is inconclusive: 4.11 µM [falling, full curve, poor fit].

For CCOC(=O)c1c(NC(NC(=O)C(C)C)C(Cl)(Cl)Cl)sc2c1CCC2 (stereo unspecified), which Potency is on record?
The Potency was active: 23.1 µM.

Which Potency does the source give for Cc1ccsc1C(=O)OCC(=O)NC1CC1 here?
The Potency was inconclusive: 29.1 µM [activator, single point].

With CC(OC(=O)c1ccc2c(c1)NC(=O)CS2)C(=O)c1ccc(F)cc1 (stereo unspecified) as the molecule, how does the Potency read?
The Potency was inconclusive: 18.4 µM [falling, single point].

With O=C(Nc1ccc(Br)cc1)c1cc2ccccn2n1 as the molecule, how does the Potency read?
The Potency was inconclusive: 2.59 µM [activator, full curve].

For COc1ccc(-c2c[n+](CC(=O)c3ccccc3)c3n2CCCCC3)cc1, which Potency is on record?
The Potency was inconclusive: 29.1 µM [falling, single point].

For CCN1CCCC(CO)(Cc2ccccc2)C1 (stereo unspecified), which Potency is on record?
The Potency was inconclusive: 29.1 µM [activator, single point].

Which Potency does the source give for Cc1nc(-c2ccccc2)nc2[nH]c(C(C)C)cc(=O)c12 here?
The Potency was inconclusive: 16.4 µM [falling, partial curve, poor fit].

For Cc1nn(C)c(Cl)c1S(=O)(=O)N1CCC(CO)(CCc2ccccc2)CC1, which Potency is on record?
The Potency was active: 20.6 µM.

Which Potency does the source give for O=C(Nc1cc2c(cc1Br)OCCO2)c1ccco1 here?
Its Potency is inconclusive: 13 µM [activator, partial curve].

With O=C(c1ccc(C(F)(F)F)cc1)N1CCN(S(=O)(=O)c2ccc3c(c2)OCCCO3)CC1 as the molecule, how does the Potency read?
Its Potency is inconclusive: 18.4 µM [falling, partial curve, poor fit].

Which Potency does the source give for COC(=O)c1ccc2nc(C)cc(Nc3ccc(O)cc3)c2c1 here?
Its Potency is inconclusive: 1.16 µM [falling, full curve, poor fit].

With CC(Sc1ncc(S(=O)(=O)c2ccc(C(C)C)cc2)c(N)n1)C(=O)Nc1ccccc1 (stereo unspecified) as the molecule, how does the Potency read?
The Potency was inconclusive: 20.6 µM [falling, single point].

Which Potency does the source give for O=C(N=C1N=C2C=CC(Br)=CN2Cc2ccccc21)c1ccc([N+](=O)[O-])cc1[N+](=O)[O-] here?
The Potency was inconclusive: 6.51 µM [activator, partial curve].

For COc1ccccc1NC(=O)C(C)OC(=O)C(C)SCC(=O)Nc1ccc(C)cc1 (stereo unspecified), which Potency is on record?
Its Potency is “inactive”.

With N#Cc1cccc2c1-c1ccccc1/C2=N/NC(N)=O as the molecule, how does the Potency read?
The Potency was inconclusive: 23.1 µM [falling, single point].

For Cc1ccc(NC(=O)CSc2ncnc3ccccc23)cc1S(=O)(=O)N1CCCCCC1, which Potency is on record?
Its Potency is inconclusive: 29.1 µM [falling, single point].

Which Potency does the source give for O=C(NCCCn1ccnc1)c1cc(-c2ccccc2)on1 here?
Its Potency is inconclusive: 20.6 µM [activator, single point].

With Cn1c(NCc2ccco2)nc2c1c(=O)n(Cc1ccc(Br)cc1)c(=O)n2C as the molecule, how does the Potency read?
Its Potency is inconclusive: 29.1 µM [falling, single point].

For Cc1ccc2[nH]c(=O)c3cc(C(=O)N(C)c4ccccc4C)sc3c2c1, which Potency is on record?
Its Potency is “inactive”.

Which Potency does the source give for COc1cccc(-c2nc(-c3ccncc3)no2)c1 here?
The Potency was inconclusive: 8.2 µM [activator, partial curve].

With O=C(Nc1ccccc1)c1[nH]ncc1[N+](=O)[O-] as the molecule, how does the Potency read?
The Potency was inconclusive: 18.4 µM [activator, partial curve].

For COc1ccc(Cl)cc1N(CC(=O)Nc1ccccc1C(=O)NCc1ccco1)S(C)(=O)=O, which Potency is on record?
The Potency was inconclusive: 14.6 µM [falling, partial curve].

For Cc1cnc(C)c(N2CCN(Cc3nc(-c4ccc(C)o4)oc3C)CC2)n1, which Potency is on record?
The Potency was inconclusive: 6.51 µM [activator, partial curve, poor fit].

For c1ccc(-c2nnc(-c3c[nH]c4ccccc34)nc2-c2ccccc2)cc1, which Potency is on record?
Its Potency is inconclusive: 2.06 µM [falling, full curve].

Which Potency does the source give for Cc1ccc(NNC(=O)c2cc(C(C)(C)C)nn2Cc2ccccc2)cc1 here?
The Potency was inconclusive: 18.4 µM [falling, partial curve].

Which Potency does the source give for Cc1ccc(NC2=CC(=O)C(=O)c3ccccc32)c(C)c1 here?
The Potency was inconclusive: 6.51 µM [activator, single point].

With Cc1cccc(N(Cc2ccccc2)C(=O)c2cccc(S(=O)(=O)N3CC(C)OC(C)C3)c2)c1 (stereo unspecified) as the molecule, how does the Potency read?
Its Potency is inconclusive: 13 µM [falling, partial curve].

For Cc1cccc(-n2nc([N+](=O)[O-])c(=NCc3cccnc3)n2O)c1, which Potency is on record?
The Potency was inconclusive: 5.17 µM [activator, full curve, poor fit].

For c1ccc(Nc2scc(-c3ccccc3)[n+]2Cc2ccco2)cc1, which Potency is on record?
The Potency was inconclusive: 32.6 µM [activator, single point].

With CC[C@H]1c2[nH]c3ccc(C(C)C)cc3c2[C@@H]2CCN3C(=O)CCC[C@H]1[C@H]23 as the molecule, how does the Potency read?
Its Potency is inconclusive: 29.1 µM [falling, single point].

With Cc1n[nH]c(C)c1N1C(=O)c2cccc3c(N4CCCCCC4)ccc(c23)C1=O as the molecule, how does the Potency read?
The Potency was “inactive”.

Which Potency does the source give for Cc1cccc(C)c1-n1c(C)cc(/C=N/NC(=O)c2ccncc2)c1C here?
Its Potency is inconclusive: 16.4 µM [falling, single point].

With O=C(CNc1cccc2ccccc12)N/N=C/c1ccc([N+](=O)[O-])o1 as the molecule, how does the Potency read?
The Potency was active: 16.4 µM.

With Cn1c(Cc2ccccc2)[n+](C)c2ccccc21 as the molecule, how does the Potency read?
Its Potency is inconclusive: 13 µM [falling, partial curve, poor fit].

Which Potency does the source give for COc1cccc(CN2CCN(Cc3nc4c(s3)CCCC4)CC2CCO)c1 (stereo unspecified) here?
The Potency was inconclusive: 23.1 µM [falling, partial curve].

With Cc1c(C(=O)NCCN(C)C)oc2c1-c1nn(Cc3ccccc3Cl)cc1CC2 as the molecule, how does the Potency read?
Its Potency is inconclusive: 29.1 µM [activator, single point].

Which Potency does the source give for CC(C)CN(C(=O)CN(C)C(=O)c1ccco1)c1c(N)n(CC(C)C)c(=O)[nH]c1=O here?
The Potency was “inactive”.

Which Potency does the source give for O=C(Nc1ccc(O)cc1)c1c(O)c2c([nH]c1=O)CCCC2 here?
The Potency was inconclusive: 3.66 µM [activator, full curve, poor fit].

Which Potency does the source give for C=C1CC(COc2cc(=O)oc3ccccc23)(c2ccccc2)OC1=O (stereo unspecified) here?
The Potency was inconclusive: 16.4 µM [falling, partial curve].

For CC(=O)N1CCOc2ccc(S(=O)(=O)N3CCC(C(=O)Nc4ccc(C)c(C)c4)CC3)cc21, which Potency is on record?
The Potency was active: 16.4 µM.

With CCOC(=O)N1CCN(C(=O)CN2C(=O)CC(C)(C)S(=O)(=O)c3ccccc32)CC1 as the molecule, how does the Potency read?
Its Potency is “inactive”.

For COc1ccc(CNC(=O)C(c2ccncc2)N(C(=O)Cc2cccs2)c2ccc(C)cc2)cc1 (stereo unspecified), which Potency is on record?
Its Potency is inconclusive: 32.6 µM [falling, single point].

For Cc1sc(NC(=O)CN(Cc2ccccc2)C(=O)C(C)C)c(C(N)=O)c1C, which Potency is on record?
The Potency was inconclusive: 32.6 µM [falling, partial curve, poor fit].

For Cc1nn(Cc2ccccc2)c(Cl)c1C(=O)OCC(=O)NC(=O)NC12CC3CC(CC(C3)C1)C2, which Potency is on record?
Its Potency is inconclusive: 29.1 µM [falling, single point].

Which Potency does the source give for CCCN1CCN(CC2=C(C(=O)OCC)C(c3ccc(Cl)cc3)NC(=O)N2)CC1 (stereo unspecified) here?
The Potency was “inactive”.

Which Potency does the source give for CCSc1ccc(-c2ccco2)nn1 here?
The Potency was inconclusive: 16.4 µM [activator, partial curve].

For CC(C)C[C@H]1CNC(=S)N1CC1CCCN1C[C@H](CC(C)C)N1C[C@H](CC(C)C)N(CC2CCCCCC2)C1=S (stereo partly specified), which Potency is on record?
The Potency was inconclusive: 25.9 µM [activator, partial curve, poor fit].

Which Potency does the source give for Cc1ccc(C(C)C)c(OCCCN(C)Cc2ccccc2)c1 here?
The Potency was “inactive”.

For COc1ccc(NC(C)=O)cc1S(=O)(=O)Nc1ccc(OCc2ccccc2)cc1, which Potency is on record?
The Potency was inconclusive: 29.1 µM [falling, single point].

For Cc1cccc(NC(=O)c2cccc(S(=O)(=O)N3CCCC3)c2)n1, which Potency is on record?
The Potency was “inactive”.

Which Potency does the source give for CC(C)Oc1ccc(OCCCN2CCCCCC2)cc1 here?
Its Potency is “inactive”.

For COc1ccc(CCN2C(=O)CC(Cc3ccccc3)C2=O)cc1OC (stereo unspecified), which Potency is on record?
The Potency was inconclusive: 10.3 µM [falling, partial curve].

For COc1ccc(-c2c(C)nn3c(N4CCC(C(=O)NCCC(C)C)CC4)cc(C)nc23)cc1OC, which Potency is on record?
The Potency was inconclusive: 1.64 µM [falling, full curve, poor fit].

With CC1CCN(c2ncnc3ccccc23)CC1 as the molecule, how does the Potency read?
Its Potency is active: 14.6 µM.

For CC(C)c1ccc(C2c3c(-c4ccccc4O)n[nH]c3C(=O)N2CCc2ccccc2)cc1 (stereo unspecified), which Potency is on record?
The Potency was inconclusive: 29.1 µM [falling, single point].

Which Potency does the source give for Cc1noc(NS(=O)(=O)c2ccc(NC(=O)c3ccc(Cl)c(S(=O)(=O)N(C)c4ccccc4)c3)cc2)c1C here?
Its Potency is “inactive”.

Which Potency does the source give for CCSC1=C(C#N)C(c2cccs2)C(C(=O)OC)=C(C)N1 (stereo unspecified) here?
Its Potency is active: 23.1 µM.

With CCn1c(CSc2nnc(-c3ccc4c(c3)OCO4)o2)nc2cc(S(=O)(=O)N(C)C)ccc21 as the molecule, how does the Potency read?
Its Potency is “inactive”.

With Cn1ccsc1=NC(=O)c1ccc(OC(F)(F)F)cc1 as the molecule, how does the Potency read?
The Potency was inconclusive: 11.6 µM [activator, partial curve].

For Cc1ccc2nc(SCC(=O)Nc3cc(C(F)(F)F)ccc3N3CCOCC3)[nH]c2c1, which Potency is on record?
Its Potency is inconclusive: 32.6 µM [falling, single point].

For O=C(Nc1cc2c(=O)n(-c3ccc(Oc4ccccc4)cc3)ccc2oc1=O)c1ccccc1, which Potency is on record?
Its Potency is inconclusive: 18.4 µM [falling, single point].

Which Potency does the source give for CS(=O)(=O)N(CC(=O)N1CCN(Cc2ccccc2)CC1)c1ccccc1Br here?
The Potency was “inactive”.

Which Potency does the source give for NC(=O)c1c(NC(=O)c2ccncc2)sc2c1CCCCCC2 here?
Its Potency is inconclusive: 25.9 µM [falling, partial curve].

With CC1CCN(C(=O)CCNS(=O)(=O)c2ccccc2)CC1 as the molecule, how does the Potency read?
Its Potency is inconclusive: 10.3 µM [activator, partial curve].

With CC1CCc2c(sc(NC(=O)c3cccn3C)c2C(N)=O)C1 (stereo unspecified) as the molecule, how does the Potency read?
Its Potency is inconclusive: 5.8 µM [activator, partial curve].
